Here are results for 1 molecule from article PMC4915522.

This assay has as its target T1, GUN1 (GENOMES UNCOUPLED 1), chloroplast-localized pentatricopeptide repeat (PPR) protein (Arabidopsis thaliana) (UniProt Q9SIC9).
T1 sequence: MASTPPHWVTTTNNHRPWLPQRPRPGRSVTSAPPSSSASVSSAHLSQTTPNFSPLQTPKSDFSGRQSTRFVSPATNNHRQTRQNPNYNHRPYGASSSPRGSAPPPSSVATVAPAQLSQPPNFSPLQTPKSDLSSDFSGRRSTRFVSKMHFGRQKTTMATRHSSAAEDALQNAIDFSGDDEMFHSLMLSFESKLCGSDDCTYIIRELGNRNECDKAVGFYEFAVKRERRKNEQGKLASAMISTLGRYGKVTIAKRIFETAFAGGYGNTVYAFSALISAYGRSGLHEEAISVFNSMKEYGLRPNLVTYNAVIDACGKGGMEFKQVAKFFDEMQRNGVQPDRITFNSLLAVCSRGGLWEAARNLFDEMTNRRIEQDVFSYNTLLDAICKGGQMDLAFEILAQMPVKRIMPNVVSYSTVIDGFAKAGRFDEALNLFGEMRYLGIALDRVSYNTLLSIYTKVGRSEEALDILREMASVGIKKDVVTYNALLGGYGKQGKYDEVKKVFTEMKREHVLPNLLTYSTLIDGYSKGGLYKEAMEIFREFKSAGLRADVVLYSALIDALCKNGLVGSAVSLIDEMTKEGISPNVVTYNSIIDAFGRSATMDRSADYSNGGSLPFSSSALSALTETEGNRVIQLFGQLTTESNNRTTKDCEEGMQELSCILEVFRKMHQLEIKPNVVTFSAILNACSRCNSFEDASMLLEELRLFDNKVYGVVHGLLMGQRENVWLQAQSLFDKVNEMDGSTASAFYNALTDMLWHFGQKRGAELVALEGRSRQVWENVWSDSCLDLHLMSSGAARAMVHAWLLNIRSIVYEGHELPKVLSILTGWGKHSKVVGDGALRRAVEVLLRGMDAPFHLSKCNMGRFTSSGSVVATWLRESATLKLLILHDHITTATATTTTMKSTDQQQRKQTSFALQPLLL
The assay can be described thus: two-hybrid; GUN1-BD (pGBKT7, bait) and COE1-AD (pGADT7, prey) co-transformed into yeast AH109; growth on SD-His-Leu-Trp-Ade plates with 40 ug/ml X-alpha-Gal, alpha-galactosidase activity assayed.

These are yes or no findings as the source states them, for the method shown.

B1: mitochondrial transcription termination factor 4 (mTERF4)/COE1/BSM/RUG2 (protein, UniProt Q9ZT96 1-541)
chain: MKIRFCNGFTKPGFLLVHFEPPSFFAVRSRSLSDSTYGNLCNHKKRPGTGIGLTVQCAIANRRFSSRSLDSPRRERSSRSSSSSGRDRDRDKDKGRDSKSLYSRPSLLDMNKEKAANRAKVYEFLRGIGIVPDELDGLELPVTADVMKERVEFLHKLGLTIEDINNYPLVLGCSVKKNMVPVLDYLGKLGVRKSTFTEFLRRYPQVLHSSVVIDLAPVVKYLQGLDIKPSDVPRVLERYPEVLGFKLEGTMSTSVAYLVGIGVARREIGGILTRYPEILGMRVARIIKPLVEYLEVLGIPRLAAARLIEKRPHILGFELDDTVKPNVQILQDFNVRETSLPSIIAQYPEIIGIDLKPKLDTQRKLLCSAIHLNPEDLGSLIERMPQFVSLSESPMLKHIDFLTKCGFSIDQTREMVIGCPQVLALNLGIMKLSFEYFQKEMKRPLQDLVDFPAFFTYGLESTVKPRHKKIIKKGIKCSLAWMLNCSDEKFEQRMSYDTIDIEEVETDPSSFDMNTLMQPEREEESDSEYEEEEDDDDEEFA
For the molecule B1, the binding entry is reported as “no binding”.
